From US20160279108A1, “TARGETED MTOR INHIBITORS” (UNIVERSITY OF KANSAS, priority 2015, published 2016)
The name of at least one read-out is uncertain. For at least one compound, name, drawing or mass did not settle the structure.

Test: In vitro drug release from HA-drug conjugates by dialysis
Assay type: physicochemical
Settings: PBS, 37° C.

CO[C@H]1C[C@@H]2CC[C@@H](C)[C@@](O)(O2)C(=O)C(=O)N2CCCC[C@H]2C(=O)O[C@H]([C@H](C)C[C@@H]2CC[C@@H](O)[C@H](OC)C2)CC(=O)[C@H](C)/C=C(\C)[C@@H](O)[C@@H](OC)C(=O)[C@H](C)C[C@H](C)/C=C/C=C/C=C/1C [rapamycin]
rate constant of release: 0.01567 h⁻¹
release half-life (first order kinetics): 9.6 min
